The results in this text go back to PMC3039813.

No constants are given. Whether binding was seen depends on the method and setting. Binding seen in cells or lysates may run through a third protein. Some entries that bind do so weakly or less than the wild type.

The test deals with Mcl-1 (human (endogenous in JVM-2 and Granta 519)), Q07820. Briefly: co-IP; lysates of JVM-2 and Granta 519 cells treated with GUT-70 for 24 h; immunoprecipitation with anti-Mcl-1 (Santa Cruz Biotechnology), western blot for Noxa. To be noted: remark: other sources report otherwise.

B1: Noxa, Q13794 1-54 (protein)
chain: MPGKKARKNAQPSPARAPAELEVECATQLRRFGDKLNFRQKLLNLISKLFCSGT
With B1, the binding result was “binds”.
